One substance from publication PMC10120156 can be followed below.

By UniProt entry, the sequences of proteins in these tests, tags left out.
UniProt P25490: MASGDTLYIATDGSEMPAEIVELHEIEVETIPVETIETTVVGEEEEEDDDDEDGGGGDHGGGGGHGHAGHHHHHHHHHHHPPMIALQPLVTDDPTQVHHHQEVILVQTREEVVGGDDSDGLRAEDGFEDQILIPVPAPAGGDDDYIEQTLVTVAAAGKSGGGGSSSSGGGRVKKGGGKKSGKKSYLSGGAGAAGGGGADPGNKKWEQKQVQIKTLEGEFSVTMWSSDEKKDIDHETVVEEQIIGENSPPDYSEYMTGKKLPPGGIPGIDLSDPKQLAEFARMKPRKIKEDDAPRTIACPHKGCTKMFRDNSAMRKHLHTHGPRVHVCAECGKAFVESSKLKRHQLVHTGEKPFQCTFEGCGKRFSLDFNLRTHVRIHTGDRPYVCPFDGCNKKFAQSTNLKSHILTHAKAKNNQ
UniProt Q09472: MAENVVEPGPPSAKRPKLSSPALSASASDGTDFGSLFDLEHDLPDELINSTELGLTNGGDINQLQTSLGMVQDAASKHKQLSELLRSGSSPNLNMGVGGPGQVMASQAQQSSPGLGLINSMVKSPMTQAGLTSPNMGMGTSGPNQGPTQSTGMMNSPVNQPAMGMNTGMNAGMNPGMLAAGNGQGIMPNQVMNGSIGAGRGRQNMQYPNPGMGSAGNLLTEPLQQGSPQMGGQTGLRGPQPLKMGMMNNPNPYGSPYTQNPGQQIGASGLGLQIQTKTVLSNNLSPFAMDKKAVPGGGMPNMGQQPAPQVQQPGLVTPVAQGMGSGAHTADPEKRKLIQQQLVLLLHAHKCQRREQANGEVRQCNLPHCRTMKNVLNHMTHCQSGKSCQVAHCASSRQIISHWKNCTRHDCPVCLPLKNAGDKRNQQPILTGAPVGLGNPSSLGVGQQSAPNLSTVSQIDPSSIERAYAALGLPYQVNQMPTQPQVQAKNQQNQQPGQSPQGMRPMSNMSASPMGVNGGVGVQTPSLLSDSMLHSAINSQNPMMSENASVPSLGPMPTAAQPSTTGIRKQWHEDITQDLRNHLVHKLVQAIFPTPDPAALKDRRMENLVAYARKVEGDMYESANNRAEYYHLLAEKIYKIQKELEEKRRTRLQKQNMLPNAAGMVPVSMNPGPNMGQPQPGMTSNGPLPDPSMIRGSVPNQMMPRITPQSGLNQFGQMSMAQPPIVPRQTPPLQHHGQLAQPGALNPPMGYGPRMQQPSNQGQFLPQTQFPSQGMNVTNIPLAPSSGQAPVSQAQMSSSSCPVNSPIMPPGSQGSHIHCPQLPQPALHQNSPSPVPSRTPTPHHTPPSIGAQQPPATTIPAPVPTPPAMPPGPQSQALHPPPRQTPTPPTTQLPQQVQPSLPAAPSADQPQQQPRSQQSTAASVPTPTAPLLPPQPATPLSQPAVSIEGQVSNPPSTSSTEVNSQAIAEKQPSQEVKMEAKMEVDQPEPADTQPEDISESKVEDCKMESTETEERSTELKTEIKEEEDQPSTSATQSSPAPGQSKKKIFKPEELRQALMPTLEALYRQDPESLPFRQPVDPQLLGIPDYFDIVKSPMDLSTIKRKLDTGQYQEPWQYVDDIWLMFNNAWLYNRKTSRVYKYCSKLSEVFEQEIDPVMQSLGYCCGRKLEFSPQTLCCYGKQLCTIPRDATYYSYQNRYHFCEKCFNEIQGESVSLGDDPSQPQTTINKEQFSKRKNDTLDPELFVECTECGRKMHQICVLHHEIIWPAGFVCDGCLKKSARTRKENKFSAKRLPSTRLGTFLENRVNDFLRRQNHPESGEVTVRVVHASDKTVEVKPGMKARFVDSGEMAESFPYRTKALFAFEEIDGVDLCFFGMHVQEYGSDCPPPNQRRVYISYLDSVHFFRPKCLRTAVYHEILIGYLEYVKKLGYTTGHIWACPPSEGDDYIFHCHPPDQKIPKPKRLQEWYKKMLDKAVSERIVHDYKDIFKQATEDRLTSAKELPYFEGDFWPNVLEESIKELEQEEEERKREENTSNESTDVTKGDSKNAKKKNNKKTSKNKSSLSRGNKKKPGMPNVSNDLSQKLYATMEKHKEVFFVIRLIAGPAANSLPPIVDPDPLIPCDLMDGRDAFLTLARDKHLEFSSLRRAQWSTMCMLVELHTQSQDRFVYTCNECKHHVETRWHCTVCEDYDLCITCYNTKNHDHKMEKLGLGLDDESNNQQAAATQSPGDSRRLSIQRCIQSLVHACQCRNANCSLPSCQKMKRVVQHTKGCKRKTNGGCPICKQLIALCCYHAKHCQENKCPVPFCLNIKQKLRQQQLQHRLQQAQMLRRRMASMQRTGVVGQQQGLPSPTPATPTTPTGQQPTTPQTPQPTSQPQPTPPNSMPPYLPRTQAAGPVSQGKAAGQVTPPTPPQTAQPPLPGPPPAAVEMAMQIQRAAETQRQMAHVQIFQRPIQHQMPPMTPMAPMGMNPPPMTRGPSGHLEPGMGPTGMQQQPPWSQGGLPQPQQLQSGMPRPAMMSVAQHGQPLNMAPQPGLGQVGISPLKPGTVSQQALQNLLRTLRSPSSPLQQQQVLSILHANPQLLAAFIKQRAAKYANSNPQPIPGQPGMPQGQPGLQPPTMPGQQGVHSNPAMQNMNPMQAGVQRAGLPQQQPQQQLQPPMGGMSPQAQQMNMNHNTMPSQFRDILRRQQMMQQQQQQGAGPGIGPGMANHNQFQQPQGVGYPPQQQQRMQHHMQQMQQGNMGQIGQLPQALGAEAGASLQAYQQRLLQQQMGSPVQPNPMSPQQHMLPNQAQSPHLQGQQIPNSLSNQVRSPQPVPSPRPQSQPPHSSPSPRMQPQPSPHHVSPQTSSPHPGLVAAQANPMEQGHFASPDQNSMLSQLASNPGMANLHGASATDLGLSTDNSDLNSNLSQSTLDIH

The experiment concerns the target Yin Yang-1 (YY1) (human (endogenous in HMC3)) (UniProt P25490). Description: co-IP; HMC3 cell lysates incubated with antibodies for 12 h at 4 °C, then protein A/G beads for 2 h (Abcam ab206996 kit); Western blot; cells under normoxia or hypoxia.

These are yes or no findings as the source states them, for the method shown. In cells and extracts the contact can be indirect. Some results given as binding are weak or reduced against the parent protein; the word gives no strength.

Regarding “p300 (from UniProt Q09472 1-2414) (enzyme)”, the binding result is reported as “binds”.
